Some of the results follow.
How the values were obtained:
Test in all cases: log2 fold change, soluble protein after heating vs DMSO (PISA); higher = thermal stabilisation; K562 cells, 10 uM, 30 min; active = over 0.2 and 3.5 SD of the protein, either way, in both replicates (recomputed)
[1] = compound: Cc1ccc(NC(=O)c2ccc(CN3CC[C@H](N(C)C)C3)c(C(F)(F)F)c2)cc1Nc1nccc(-c2cncnc2)n1 [bafetinib]
Outline: (§1)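 K562 cells at 2×10^6 cells/mL were treated for 30 min with 10 μM compound, and aliquots were heated for 3 min over 48°C-58°C before pooling. Extraction used PBS with 0.5% NP-40 at 4°C, and soluble protein was the supernatant after 21,000xg for 90 min, measured by TMTpro 16plex LC-MS/MS with channel sums equalised. Thermal stability values, relative to control samples and from duplicates, are log2 fold changes.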

Amino acid sequences for entries named in this document (tags omitted). A change or cut given only in a name is not applied to a line headed by its entry.
UniProt Q12800: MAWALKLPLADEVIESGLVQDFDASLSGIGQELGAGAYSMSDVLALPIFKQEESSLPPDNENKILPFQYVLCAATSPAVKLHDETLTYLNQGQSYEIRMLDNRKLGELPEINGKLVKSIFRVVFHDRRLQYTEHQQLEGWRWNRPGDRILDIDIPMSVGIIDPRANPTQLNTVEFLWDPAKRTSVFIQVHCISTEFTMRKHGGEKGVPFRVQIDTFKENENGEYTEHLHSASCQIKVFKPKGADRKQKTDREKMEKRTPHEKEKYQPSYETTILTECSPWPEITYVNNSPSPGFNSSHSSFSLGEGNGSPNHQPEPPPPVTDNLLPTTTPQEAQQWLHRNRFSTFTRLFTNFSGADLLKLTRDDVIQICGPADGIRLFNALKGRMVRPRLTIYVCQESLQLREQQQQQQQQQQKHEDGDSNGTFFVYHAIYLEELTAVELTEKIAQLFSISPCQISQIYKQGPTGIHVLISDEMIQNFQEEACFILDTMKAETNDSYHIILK
UniProt Q9Y5L4: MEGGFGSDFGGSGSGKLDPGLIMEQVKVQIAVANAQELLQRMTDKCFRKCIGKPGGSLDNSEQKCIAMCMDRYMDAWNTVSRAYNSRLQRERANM
UniProt Q9NQ88: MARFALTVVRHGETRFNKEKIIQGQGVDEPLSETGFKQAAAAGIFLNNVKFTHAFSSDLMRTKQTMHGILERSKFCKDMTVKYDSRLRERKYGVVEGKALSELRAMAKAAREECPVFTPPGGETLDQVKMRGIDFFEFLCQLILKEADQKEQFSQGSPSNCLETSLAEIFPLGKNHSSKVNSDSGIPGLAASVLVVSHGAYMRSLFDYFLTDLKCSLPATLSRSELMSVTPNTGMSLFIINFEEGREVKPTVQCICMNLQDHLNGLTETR
UniProt P02787, whole entry, looked up: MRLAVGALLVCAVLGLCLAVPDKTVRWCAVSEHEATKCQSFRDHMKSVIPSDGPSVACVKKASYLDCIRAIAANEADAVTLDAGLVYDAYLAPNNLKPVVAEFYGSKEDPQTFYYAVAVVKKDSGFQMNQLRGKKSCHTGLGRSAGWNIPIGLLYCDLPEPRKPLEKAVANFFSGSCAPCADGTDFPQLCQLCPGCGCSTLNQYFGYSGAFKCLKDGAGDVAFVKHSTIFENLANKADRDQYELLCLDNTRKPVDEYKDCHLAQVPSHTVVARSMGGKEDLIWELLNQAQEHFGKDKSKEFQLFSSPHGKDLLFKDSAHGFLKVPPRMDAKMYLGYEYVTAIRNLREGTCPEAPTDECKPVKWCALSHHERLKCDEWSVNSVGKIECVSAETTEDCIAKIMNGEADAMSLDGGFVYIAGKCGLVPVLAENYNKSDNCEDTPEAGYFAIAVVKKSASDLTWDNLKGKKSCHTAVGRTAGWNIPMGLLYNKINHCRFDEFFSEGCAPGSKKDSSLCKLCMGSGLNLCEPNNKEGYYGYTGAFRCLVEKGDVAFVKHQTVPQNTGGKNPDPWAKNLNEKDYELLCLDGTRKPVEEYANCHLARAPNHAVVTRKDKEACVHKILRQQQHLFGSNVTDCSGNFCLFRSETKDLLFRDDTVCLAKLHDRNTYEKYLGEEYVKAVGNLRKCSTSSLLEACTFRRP
UniProt Q8WUA7: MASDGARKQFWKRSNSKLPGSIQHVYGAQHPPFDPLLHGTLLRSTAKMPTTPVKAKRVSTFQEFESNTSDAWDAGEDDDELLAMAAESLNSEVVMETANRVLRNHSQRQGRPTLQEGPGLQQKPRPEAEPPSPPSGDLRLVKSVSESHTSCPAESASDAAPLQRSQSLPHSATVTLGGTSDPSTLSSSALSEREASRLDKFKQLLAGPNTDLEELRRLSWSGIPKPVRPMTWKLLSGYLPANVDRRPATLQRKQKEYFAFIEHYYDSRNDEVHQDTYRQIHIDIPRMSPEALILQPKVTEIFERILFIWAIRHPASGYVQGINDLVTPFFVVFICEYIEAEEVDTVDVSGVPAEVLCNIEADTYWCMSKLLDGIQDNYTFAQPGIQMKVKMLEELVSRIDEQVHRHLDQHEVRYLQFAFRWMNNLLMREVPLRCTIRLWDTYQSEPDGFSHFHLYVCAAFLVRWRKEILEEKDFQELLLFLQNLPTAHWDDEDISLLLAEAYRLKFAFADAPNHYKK
UniProt Q9BTW9: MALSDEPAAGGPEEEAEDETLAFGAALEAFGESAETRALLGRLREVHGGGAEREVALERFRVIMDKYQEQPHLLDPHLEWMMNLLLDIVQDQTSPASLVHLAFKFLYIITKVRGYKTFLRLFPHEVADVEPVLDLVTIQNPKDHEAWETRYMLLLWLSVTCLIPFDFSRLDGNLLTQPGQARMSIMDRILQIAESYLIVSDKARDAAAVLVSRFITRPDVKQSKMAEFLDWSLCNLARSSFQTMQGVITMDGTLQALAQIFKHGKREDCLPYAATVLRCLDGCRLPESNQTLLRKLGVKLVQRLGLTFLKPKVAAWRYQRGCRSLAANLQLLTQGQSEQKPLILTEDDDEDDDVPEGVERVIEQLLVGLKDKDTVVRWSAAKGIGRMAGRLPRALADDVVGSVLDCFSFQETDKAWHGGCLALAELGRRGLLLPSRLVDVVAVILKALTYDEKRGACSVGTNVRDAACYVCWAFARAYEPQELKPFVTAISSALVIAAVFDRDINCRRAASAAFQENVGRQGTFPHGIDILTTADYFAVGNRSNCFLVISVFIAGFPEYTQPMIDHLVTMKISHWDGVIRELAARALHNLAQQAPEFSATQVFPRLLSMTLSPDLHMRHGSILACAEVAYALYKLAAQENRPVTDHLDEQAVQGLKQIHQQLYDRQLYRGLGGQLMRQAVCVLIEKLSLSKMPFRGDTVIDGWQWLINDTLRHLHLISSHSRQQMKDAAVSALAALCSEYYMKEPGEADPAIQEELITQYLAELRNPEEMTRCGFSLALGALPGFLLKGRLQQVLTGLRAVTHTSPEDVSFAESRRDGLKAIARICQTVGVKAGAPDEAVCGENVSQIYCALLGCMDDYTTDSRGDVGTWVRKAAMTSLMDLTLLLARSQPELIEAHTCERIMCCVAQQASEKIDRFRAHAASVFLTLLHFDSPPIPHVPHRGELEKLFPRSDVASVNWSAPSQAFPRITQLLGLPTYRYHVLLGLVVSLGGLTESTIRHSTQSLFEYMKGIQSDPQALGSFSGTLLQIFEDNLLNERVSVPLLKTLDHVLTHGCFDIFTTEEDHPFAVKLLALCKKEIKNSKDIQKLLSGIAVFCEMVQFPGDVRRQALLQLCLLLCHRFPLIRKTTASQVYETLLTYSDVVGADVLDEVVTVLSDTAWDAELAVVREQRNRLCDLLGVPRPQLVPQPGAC
UniProt Q9Y2W6: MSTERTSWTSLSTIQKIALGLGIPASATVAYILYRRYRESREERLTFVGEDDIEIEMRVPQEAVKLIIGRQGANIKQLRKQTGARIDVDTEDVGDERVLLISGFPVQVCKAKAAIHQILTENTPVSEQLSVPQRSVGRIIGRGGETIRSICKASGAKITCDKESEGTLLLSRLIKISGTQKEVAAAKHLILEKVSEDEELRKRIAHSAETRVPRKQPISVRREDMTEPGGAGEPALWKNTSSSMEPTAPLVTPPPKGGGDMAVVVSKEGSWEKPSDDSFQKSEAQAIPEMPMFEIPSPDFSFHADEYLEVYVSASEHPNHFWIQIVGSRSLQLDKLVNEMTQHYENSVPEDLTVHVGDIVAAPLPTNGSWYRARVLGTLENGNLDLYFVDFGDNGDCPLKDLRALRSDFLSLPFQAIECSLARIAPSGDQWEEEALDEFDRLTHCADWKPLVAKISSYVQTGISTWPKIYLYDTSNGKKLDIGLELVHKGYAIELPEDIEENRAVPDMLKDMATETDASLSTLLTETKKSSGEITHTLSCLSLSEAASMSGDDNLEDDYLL
UniProt Q07157: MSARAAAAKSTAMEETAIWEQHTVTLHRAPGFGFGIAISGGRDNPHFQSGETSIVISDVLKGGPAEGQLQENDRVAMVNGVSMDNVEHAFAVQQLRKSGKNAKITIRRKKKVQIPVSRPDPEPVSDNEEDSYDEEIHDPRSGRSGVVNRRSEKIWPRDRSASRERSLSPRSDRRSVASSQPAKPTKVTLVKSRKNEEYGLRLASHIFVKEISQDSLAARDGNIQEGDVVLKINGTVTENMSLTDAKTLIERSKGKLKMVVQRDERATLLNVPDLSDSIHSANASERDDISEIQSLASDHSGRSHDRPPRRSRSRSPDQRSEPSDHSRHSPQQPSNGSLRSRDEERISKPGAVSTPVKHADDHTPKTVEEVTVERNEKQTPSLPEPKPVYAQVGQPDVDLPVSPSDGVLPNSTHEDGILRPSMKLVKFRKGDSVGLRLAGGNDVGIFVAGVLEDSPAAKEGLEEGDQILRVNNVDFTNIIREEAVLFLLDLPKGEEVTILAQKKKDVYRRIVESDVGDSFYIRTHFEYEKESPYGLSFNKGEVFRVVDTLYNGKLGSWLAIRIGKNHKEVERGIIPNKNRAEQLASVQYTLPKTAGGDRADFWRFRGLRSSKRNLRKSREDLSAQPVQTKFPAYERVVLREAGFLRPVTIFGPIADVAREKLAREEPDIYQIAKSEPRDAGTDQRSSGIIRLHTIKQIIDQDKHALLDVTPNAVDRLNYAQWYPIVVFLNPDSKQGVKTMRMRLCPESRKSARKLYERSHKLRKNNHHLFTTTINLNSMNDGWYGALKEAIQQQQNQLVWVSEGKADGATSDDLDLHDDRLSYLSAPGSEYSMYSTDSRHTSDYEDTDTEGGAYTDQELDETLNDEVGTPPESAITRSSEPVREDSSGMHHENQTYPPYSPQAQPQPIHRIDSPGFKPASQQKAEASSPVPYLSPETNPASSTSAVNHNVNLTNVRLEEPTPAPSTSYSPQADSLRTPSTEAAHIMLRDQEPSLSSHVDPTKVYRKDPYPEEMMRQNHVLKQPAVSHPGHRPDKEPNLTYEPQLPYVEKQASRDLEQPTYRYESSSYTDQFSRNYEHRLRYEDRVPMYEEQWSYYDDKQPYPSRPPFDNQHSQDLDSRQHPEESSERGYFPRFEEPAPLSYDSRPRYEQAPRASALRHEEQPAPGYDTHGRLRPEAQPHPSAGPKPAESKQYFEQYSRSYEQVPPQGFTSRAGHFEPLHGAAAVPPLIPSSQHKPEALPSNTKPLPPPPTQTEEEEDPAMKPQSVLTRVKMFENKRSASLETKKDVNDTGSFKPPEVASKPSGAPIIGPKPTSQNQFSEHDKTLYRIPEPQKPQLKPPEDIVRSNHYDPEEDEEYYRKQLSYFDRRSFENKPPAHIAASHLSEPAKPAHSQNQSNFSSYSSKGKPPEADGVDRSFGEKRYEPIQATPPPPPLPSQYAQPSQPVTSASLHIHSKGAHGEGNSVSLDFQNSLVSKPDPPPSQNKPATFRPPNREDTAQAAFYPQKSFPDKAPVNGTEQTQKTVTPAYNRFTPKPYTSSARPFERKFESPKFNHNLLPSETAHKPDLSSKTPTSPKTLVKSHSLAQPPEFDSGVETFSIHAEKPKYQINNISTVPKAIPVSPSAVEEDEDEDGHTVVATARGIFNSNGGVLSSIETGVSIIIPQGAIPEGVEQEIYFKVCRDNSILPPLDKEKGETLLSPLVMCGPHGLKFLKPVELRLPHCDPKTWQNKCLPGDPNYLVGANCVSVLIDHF
UniProt Q9Y2W1: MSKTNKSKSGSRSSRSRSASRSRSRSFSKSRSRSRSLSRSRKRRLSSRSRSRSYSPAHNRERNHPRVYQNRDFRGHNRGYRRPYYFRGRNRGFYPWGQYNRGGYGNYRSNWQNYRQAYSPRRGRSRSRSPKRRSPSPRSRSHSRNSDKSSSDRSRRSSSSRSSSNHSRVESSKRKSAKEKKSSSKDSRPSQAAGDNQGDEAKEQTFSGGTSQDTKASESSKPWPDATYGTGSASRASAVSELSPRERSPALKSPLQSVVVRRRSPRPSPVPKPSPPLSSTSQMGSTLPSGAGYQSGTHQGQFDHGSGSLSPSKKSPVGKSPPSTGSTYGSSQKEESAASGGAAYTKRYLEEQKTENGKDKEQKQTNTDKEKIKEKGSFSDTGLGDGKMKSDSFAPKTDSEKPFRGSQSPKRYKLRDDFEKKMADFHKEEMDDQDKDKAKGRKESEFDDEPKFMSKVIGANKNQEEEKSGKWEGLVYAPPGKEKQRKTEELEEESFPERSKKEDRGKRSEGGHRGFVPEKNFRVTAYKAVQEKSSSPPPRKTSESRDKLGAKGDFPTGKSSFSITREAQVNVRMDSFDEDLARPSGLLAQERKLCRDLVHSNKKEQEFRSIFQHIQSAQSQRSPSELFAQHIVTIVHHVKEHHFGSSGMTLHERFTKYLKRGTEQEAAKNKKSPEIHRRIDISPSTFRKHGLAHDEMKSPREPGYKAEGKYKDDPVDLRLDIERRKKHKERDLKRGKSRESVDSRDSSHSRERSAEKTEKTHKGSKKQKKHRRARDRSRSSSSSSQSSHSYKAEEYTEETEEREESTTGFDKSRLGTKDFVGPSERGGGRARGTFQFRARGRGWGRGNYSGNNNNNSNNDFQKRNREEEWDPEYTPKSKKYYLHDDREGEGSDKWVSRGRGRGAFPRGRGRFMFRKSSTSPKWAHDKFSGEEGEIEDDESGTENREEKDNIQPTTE

[2] = compound: Cc1cccc(CC(=O)N2CCc3c2ccc(-c2cn(C)c4ncnc(N)c24)c3F)n1
Outline: as §1

[3] = compound: Cc1cn(-c2cc(NC(=O)c3ccc(C)c(Nc4nccc(-c5cccnc5)n4)c3)cc(C(F)(F)F)c2)cn1 [nilotinib]
Outline: as §1

[4] = compound: Cc1nc(Nc2n[nH]c3c2CN(C(=O)N[C@H](CN(C)C)c2ccccc2)C3(C)C)c2sccc2n1
Outline: as §1

[5] = compound: Cc1nc(Nc2ncc(C(=O)Nc3c(C)cccc3Cl)s2)cc(N2CCN(CCO)CC2)n1 [dasatinib]
Outline: as §1

[6] = compound: Cc1ncc(-c2ccnc(Nc3ccc(S(C)(=O)=O)cc3)n2)n1C(C)C
Outline: as §1

[7] = compound: Cn1cc(-c2ccc3c(c2)CCN3C(=O)Cc2cccc(C(F)(F)F)c2)c2c(N)ncnc21
Outline: as §1

[8] = compound: Cn1cc(-c2ccc3nnc(C(F)(F)c4ccc5ncccc5c4)n3n2)cn1
Outline: as §1

[9] = compound: Cn1cncc1[C@@](N)(c1ccc(Cl)cc1)c1ccc2c(c1)c(-c1cccc(Cl)c1)cc(=O)n2C [tipifarnib]
Outline: as §1

[10] = compound: FC(F)(F)c1ccc(/C=C/c2nc(COc3ccc(CCCCn4ccnn4)cc3)co2)cc1 [mubritinib]
Outline: as §1

Target	log2 fold change [1]	log2 fold change [2]	log2 fold change [3]	log2 fold change [4]	log2 fold change [5]	log2 fold change [6]	log2 fold change [7]	log2 fold change [8]	log2 fold change [9]	log2 fold change [10]
TFCP2 (UniProt Q12800)	inactive: 0.04	inactive: -0.092	inactive: 0.047	inactive: -0.03	inactive: -0.004	inactive: -0.03	inactive: -0.28	inactive: 0.026	–	–
TIMM13 (UniProt Q9Y5L4)	inactive: 0.086	inactive: 0.156	inactive: 0.018	inactive: -0.017	inactive: 0	inactive: 0.035	inactive: 0.07	inactive: -0.003	inactive: -0.111	inactive: 0.005
TIGAR (UniProt Q9NQ88)	inactive: -0.083	inactive: -0.086	–	–	–	–	–	–	–	–
TBC1D15 isoform 3 (UniProt Q8TC07)	inactive: -0.026	inactive: 0.059	inactive: -0.116	inactive: -0.098	inactive: -0.133	inactive: -0.004	inactive: -0.052	inactive: 0.011	inactive: -0.134	inactive: 0.054
THOC3 (UniProt Q96J01)	inactive: 0.011	inactive: 0.031	inactive: 0.01	inactive: -0.02	inactive: -0.008	inactive: -0.025	inactive: 0.044	inactive: 0.024	inactive: -0.057	inactive: 0.032
TBC1D23 (UniProt Q9NUY8)	inactive: -0.141	inactive: 0.041	inactive: -0.113	inactive: -0.032	inactive: -0.155	inactive: -0.056	inactive: 0.025	inactive: 0.006	inactive: 0.003	inactive: -0.011
TBCA (UniProt O75347)	inactive: -0.038	inactive: -0.046	inactive: -0.015	inactive: -0.018	inactive: 0.047	inactive: -0.032	inactive: -0.009	inactive: -0.003	inactive: 0.025	inactive: 0.028
TLCD1 (UniProt Q96CP7)	inactive: -0.019	inactive: -0.005	inactive: -0.021	inactive: 0.052	inactive: 0.043	inactive: 0.054	inactive: 0.017	inactive: -0.098	inactive: 0.143	inactive: 0.019
TF (UniProt P02787)	inactive: 0.016	inactive: -0.095	inactive: 0.042	inactive: -0.029	inactive: 0.131	inactive: 0.486	inactive: 0.198	inactive: -0.05	inactive: -0.066	inactive: -0.393
TEX30 (UniProt Q5JUR7)	inactive: -0.01	inactive: -0.053	inactive: -0.147	inactive: -0.095	inactive: -0.2	inactive: -0.016	inactive: 0.084	inactive: -0.004	inactive: -0.18	inactive: 0.033
TBC1D22A (UniProt Q8WUA7)	inactive: -0.078	inactive: 0.05	inactive: 0.019	inactive: -0.039	inactive: 0.009	inactive: 0.001	inactive: 0.027	inactive: 0.035	inactive: 0.042	inactive: 0.039
TBCD (UniProt Q9BTW9)	inactive: -0.064	inactive: 0.029	inactive: -0.101	inactive: -0.078	inactive: -0.086	inactive: -0.025	inactive: 0.007	inactive: 0.025	inactive: -0.038	inactive: -0.039
TERF2 (UniProt Q15554)	inactive: 0.031	inactive: -0.009	inactive: -0.024	inactive: -0.12	inactive: -0.157	inactive: -0.045	inactive: -0.071	inactive: -0.151	inactive: 0.006	inactive: -0.172
THOC6 (UniProt Q86W42)	inactive: -0.017	inactive: -0.025	inactive: -0.007	inactive: -0.034	inactive: 0.014	inactive: -0.033	inactive: 0.055	inactive: -0.076	inactive: -0.009	inactive: -0.012
TFG (UniProt Q92734)	inactive: -0.059	inactive: -0.021	inactive: 0.011	inactive: 0.008	inactive: 0.045	inactive: 0.009	inactive: -0.039	inactive: -0.046	inactive: 0.006	inactive: 0.033
TKT isoform 2 (UniProt P29401)	inactive: -0.013	inactive: 0.012	inactive: 0.037	inactive: -0.01	inactive: 0.031	inactive: 0.002	inactive: 0.004	inactive: 0.007	inactive: -0.014	inactive: 0.017

Fetched one by one from the list above, 2 records:
Target	log2 fold change [1]	log2 fold change [2]	log2 fold change [3]	log2 fold change [4]	log2 fold change [5]	log2 fold change [6]	log2 fold change [7]	log2 fold change [8]	log2 fold change [9]	log2 fold change [10]
THOC6 (UniProt Q86W42)	inactive: -0.017	inactive: -0.025	inactive: -0.007	inactive: -0.034	inactive: 0.014	inactive: -0.033	inactive: 0.055	inactive: -0.076	inactive: -0.009	inactive: -0.012
TERF2 (UniProt Q15554)	inactive: 0.031	inactive: -0.009	inactive: -0.024	inactive: -0.12	inactive: -0.157	inactive: -0.045	inactive: -0.071	inactive: -0.151	inactive: 0.006	inactive: -0.172

The list goes on.

Target	log2 fold change [1]	log2 fold change [2]	log2 fold change [3]	log2 fold change [4]	log2 fold change [5]	log2 fold change [6]	log2 fold change [7]	log2 fold change [8]	log2 fold change [9]	log2 fold change [10]
TJP2 isoform 7 (UniProt Q9UDY2)	inactive: 0.05	inactive: 0.149	inactive: 0.014	inactive: -0.207	inactive: -0.191	inactive: -0.025	inactive: 0.009	inactive: 0.014	inactive: -0.094	inactive: 0.002
TDP2 isoform 2 (UniProt O95551)	inactive: -0.006	inactive: 0.035	inactive: -0.039	inactive: 0.003	inactive: -0.092	inactive: -0.087	inactive: 0.075	inactive: -0.037	inactive: -0.095	inactive: 0.098
THUMPD1 (UniProt Q9NXG2)	inactive: -0.038	inactive: -0.024	inactive: -0.003	inactive: -0.022	inactive: 0.014	inactive: -0.021	inactive: 0.046	inactive: -0.013	inactive: -0.005	inactive: 0.021
TCOF1 isoform 4 (UniProt Q13428)	inactive: -0.037	inactive: -0.012	inactive: -0.022	inactive: 0.045	inactive: 0.048	inactive: -0.034	inactive: -0.046	inactive: -0.014	inactive: 0.022	inactive: 0.025
TIMP1 (UniProt P01033)	inactive: 0.009	inactive: -0.079	inactive: 0.084	inactive: -0.103	inactive: 0.153	inactive: -0.004	inactive: 0.065	inactive: -0.095	inactive: 0.052	inactive: -0.023
TGFBRAP1 (UniProt Q8WUH2)	inactive: -0.05	active: 0.482	inactive: -0.122	inactive: -0.125	inactive: -0.153	inactive: 0.091	inactive: -0.151	inactive: -0.16	inactive: 0.032	inactive: 0.053
TBK1 (UniProt Q9UHD2)	inactive: -0.035	inactive: -0.024	inactive: -0.114	active: 0.911	inactive: -0.096	inactive: 0.012	inactive: 0.055	inactive: -0.002	inactive: -0.103	inactive: -0.038
TDRKH (UniProt Q9Y2W6)	inactive: 0.01	inactive: 0.023	inactive: -0.042	inactive: -0.071	inactive: -0.003	inactive: -0.076	inactive: -0.042	inactive: -0.054	inactive: 0.038	inactive: 0.061
TJP1 (UniProt Q07157)	inactive: -0.061	inactive: 0.008	inactive: 0.024	inactive: -0.199	inactive: -0.092	inactive: -0.037	inactive: -0.028	inactive: -0.02	inactive: -0.025	inactive: 0.073
TK1 (UniProt K7ERV3)	inactive: -0.03	inactive: 0.022	inactive: -0.108	inactive: -0.018	inactive: 0.018	inactive: -0.076	inactive: 0.176	inactive: 0.016	inactive: 0.03	inactive: 0.037
TBPL1 (UniProt P62380)	inactive: -0.036	inactive: -0.017	inactive: -0.069	inactive: -0.025	inactive: -0.136	inactive: -0.022	inactive: 0.05	inactive: 0.053	inactive: -0.115	inactive: -0.026
THRAP3 (UniProt Q9Y2W1)	inactive: 0.052	inactive: -0.025	inactive: 0.049	inactive: -0.177	inactive: -0.009	inactive: 0	inactive: -0.045	inactive: -0.033	inactive: 0.118	inactive: 0.063
TIMM23 (UniProt O14925)	inactive: 0.013	inactive: 0.009	inactive: 0.037	inactive: -0.026	inactive: 0.033	inactive: 0.005	inactive: 0.021	inactive: -0.015	inactive: 0	inactive: 0.035
TIA1 (UniProt P31483)	inactive: -0.068	inactive: 0.071	inactive: -0.004	inactive: 0.05	inactive: -0.025	inactive: 0.053	inactive: 0.056	inactive: 0.097	inactive: 0	inactive: 0.01
THOP1 (UniProt P52888)	inactive: -0.002	inactive: 0	inactive: 0.014	inactive: 0.011	inactive: 0	inactive: -0.001	inactive: 0.033	inactive: 0.019	inactive: -0.016	inactive: 0.011
